# Values joined by “and” are separate entries in the source; they are usually repeats but may differ in a detail not shown here. Equal entries are not always repeated. Screen size: about 400,000 compounds; about 13,000 (3.2%) were called active. This list was built around the results that the source calls inconclusive (neither active nor inactive); the mix of calls is not that of the screen. Calls follow the shape of the dose curve; as a rule, active = well fitted cell-killing curve with a large enough effect; inconclusive = small, poorly fitted or top-dose-only effect, or effect the other way; inactive = flat fitted curve, though single readings scatter. Potencies beside an inconclusive call are fits to weak or partial responses and may not hold up.
# Assay: qHTS assay for MDR1-selective chemotherapeutics: Primary screen using the drug-selected MDR subline cells KB-V1; also: nearly all actives have a fitted effect of over 60% in size
# Conditions: KB-V1 MDR cells viability, CellTiter-Glo, 72 h; activity change, negative = cytotoxicity: at 46.1 µM (top of the series)
# In short: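 Potencies derive from concentration-effect curves fitted to normalized luminescence (CellTiter-Glo) of KB-V1 cells treated for 72 h at 37 degrees C in phenol-red-free DMEM containing 10% FBS.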
# % is scaled to controls: 0 for no effect and ±100 for the full control effect; potency is read from the fitted curve at half-maximal effect.
SMILES,Potency,"activity change, negative = cytotoxicity"
Cc1c(C(=O)N(Cc2ccco2)Cc2cccs2)oc2ccccc12,active: 16.4 µM,
CC(=O)c1c(C)n([O-])c2cc(F)c(F)cc2[n+]1=O,"inconclusive: 20.6 µM [cytotoxic, partial curve, poor fit]",
CC(=O)Nc1ccc(NC(=O)c2ccc3c(c2)CCN3S(=O)(=O)c2ccc(Cl)cc2)cc1,"inconclusive: 5.17 µM [rising, partial curve]",
COc1cc(NC2=CC(=O)CC(C)(C)C2)cc(OC)c1,"inconclusive: 23.1 µM [cytotoxic, single point]",
N#Cc1cccc(NC(=O)COC(=O)c2ccc[n+]([O-])c2)c1,"inconclusive: 16.4 µM [rising, single point]",
Cc1ccc(-n2nc(C(=O)NCc3ccc(C)o3)c3c4ccccc4n(C)c3c2=O)cc1,"inconclusive: 9.2 µM [cytotoxic, partial curve]",
NC(=O)c1ccc(NC(=O)c2cc(S(=O)(=O)N3CCCCC3)ccc2N2CCOCC2)cc1,"inconclusive: 29.1 µM [rising, single point]",
COc1ccc(-c2cc(C(=O)N3CCN(c4cccc(C)c4C)CC3)c3ccccc3n2)cc1OC,inactive,
N#Cc1c(-c2ccco2)ccn(Cc2ccc(F)cc2)c1=O,"inconclusive: 9.2 µM [cytotoxic, partial curve, poor fit]",
CCCCn1c(N)c(N(CC(C)C)C(=O)c2cc(Br)c(Br)s2)c(=O)[nH]c1=O,inactive,
FC(F)(F)Sc1ccc(NC(=S)NCc2ccccc2)cc1,"inconclusive: 29.1 µM [cytotoxic, single point]",
C1CCC(C(CC2CCCCN2)C2CCCCC2)CC1 (centres undefined),"active: 18.4 µM and inconclusive: 16.4 µM [cytotoxic, single point]",
C/C(=N\NC(=O)CN1CCCCC1)c1ccccc1O,inactive,
COCCNC(=O)[C@H](CSCc1ccccc1)N1Cc2ccccc2C1=O,active: 9.2 µM,
O=C1/C(=C\c2ccccc2)CCc2c1[nH]c1ccccc21,"inconclusive: 0.651 µM [cytotoxic, full curve, poor fit]",
Nc1c(S(=O)(=O)c2ccccc2)c2nc3ccccc3nc2n1/N=C/c1cccc(O)c1,"inconclusive: 29.1 µM [cytotoxic, single point]",
O=C(NCCCN1CCCC1)c1ccc2c(c1)N(Cc1ccc(F)cc1)C(=O)c1ccccc1S2=O (centres undefined),"inconclusive: 29.1 µM [rising, partial curve, poor fit]",
C[C@H](CO)N1C[C@H](C)[C@@H](CN(C)Cc2ccc(Cl)c(Cl)c2)OCCCC[C@H](C)Oc2ccc(NC(=O)CCC(F)(F)F)cc2C1=O,inactive,
CCOC(=O)CN(Cc1ccccc1)S(=O)(=O)c1ccc(NC(C)=O)cc1,active: 14.6 µM,
c1ccc2sc(NC3=NCN(C4CCCCCC4)CN3)nc2c1,active: 20.6 µM,
CN1CC(=O)N2[C@H](c3ccc4c(c3)OCO4)c3[nH]c4ccccc4c3C[C@@H]2C1=O,"inconclusive: 20.6 µM [cytotoxic, partial curve, poor fit]",
OCCNc1ncnc2c1ncn2[C@H]1CN(Cc2ccc(Cl)cc2)C[C@@H](CO)O1,,inconclusive: -2.09%

# Reformatted with tabs: entries from further up
SMILES	Potency	activity change, negative = cytotoxicity
CCCCn1c(N)c(N(CC(C)C)C(=O)c2cc(Br)c(Br)s2)c(=O)[nH]c1=O	inactive	
C1CCC(C(CC2CCCCN2)C2CCCCC2)CC1 (centres undefined)	active: 18.4 µM and inconclusive: 16.4 µM [cytotoxic, single point]	

# More entries.

SMILES,Potency,"activity change, negative = cytotoxicity"
CCC(=O)N1c2ccccc2CC1C(=O)NCCc1ccccc1OC (centres undefined),inactive,
Cc1ccc(S(=O)(=O)N(C)C[C@H]2Oc3ccc(NC(=O)Nc4c(C)noc4C)cc3CC(=O)N([C@@H](C)CO)C[C@@H]2C)cc1,"inconclusive: 29.1 µM [rising, single point]",
COC(=O)c1ccc(C(=O)OC)c(NC(=O)CSc2cccc[n+]2[O-])c1,"inconclusive: 29.1 µM [cytotoxic, single point]",
COC(=O)Cc1ccc(NC(=S)NC(C)(C)C)cc1,inactive,
Cc1cc2c(cc1C)C(=O)CCC2,inactive,
COc1ccc(C(C)=O)cc1CSc1nncn1C,"inconclusive: 16.4 µM [rising, partial curve, poor fit]",
CCN(CC)c1ccc2cc(-c3nnc(-c4ccccc4)o3)c(=O)oc2c1,"inconclusive: 2.31 µM [cytotoxic, full curve, poor fit]",
COc1cccc(C(=O)OCC(=O)Nc2ccc(N3CCOCC3)cc2)c1,"inconclusive: 23.1 µM [rising, partial curve, poor fit]",
Cc1cc(=O)c2ccccc2n1Cc1ccccc1,"inconclusive: 23.1 µM [cytotoxic, single point]",
CCOC(=O)c1cnc2cc3c(cn2c1=O)CCCC3,"inconclusive: 20.6 µM [cytotoxic, single point]",
COc1ccc(Oc2ccc(C(F)(F)F)cc2NC(=O)c2ccc(C)cc2)cc1,inactive,
COc1cccc(OCC(=O)N2CCCc3ccccc32)c1,"inconclusive: 29.1 µM [cytotoxic, single point]",
C/C(=C\c1ccccc1)CN1CCN(c2ccccc2)CC1,"inconclusive: 29.1 µM [cytotoxic, single point]",
COc1ccc(C(=O)Nc2cc(-c3nc4ncccc4o3)ccc2C)cc1Br,inactive,
Cc1noc(-c2ccc(N(C)Cc3ccccc3)c([N+](=O)[O-])c2)n1,inactive,
CCCCNC(=O)c1onc(CSc2cccc3ccccc23)c1C(=O)O,"inconclusive: 2.31 µM [rising, partial curve, poor fit]",
COc1ccc(CCNC(=O)C2CCN(Cc3nc(-c4cccc(Cl)c4)oc3C)CC2)cc1OC,active: 3.26 µM,
Cc1nnnn1/C(=C\c1ccccc1)C(=O)OCC(=O)NC1CCCCC1,inactive,
Cc1cc(=O)oc2cc(OC(C)C(=O)NC3CCCC3)ccc12 (centres undefined),"inconclusive: 29.1 µM [cytotoxic, single point]",
COc1ccc(C(=O)c2cc([N+](=O)[O-])ccc2N2CCCC2)cc1,"inconclusive: 23.1 µM [cytotoxic, single point]",
O=C(Nc1cc(Cl)ccc1O)c1snnc1-c1ccccc1,active: 8.2 µM,
